Data taken from article PMC9200292.
These are yes or no findings as the source states them, for the method shown. In cells and extracts the contact can be indirect. These calls come from enrichment with a bait or labelling near it, and not all partners need be listed. Where a sequence is shown, tags or fusion partners need not be part of it.

Sequences of proteins named here, by UniProt entry; tags and fusion partners are left off.
UniProt Q14008: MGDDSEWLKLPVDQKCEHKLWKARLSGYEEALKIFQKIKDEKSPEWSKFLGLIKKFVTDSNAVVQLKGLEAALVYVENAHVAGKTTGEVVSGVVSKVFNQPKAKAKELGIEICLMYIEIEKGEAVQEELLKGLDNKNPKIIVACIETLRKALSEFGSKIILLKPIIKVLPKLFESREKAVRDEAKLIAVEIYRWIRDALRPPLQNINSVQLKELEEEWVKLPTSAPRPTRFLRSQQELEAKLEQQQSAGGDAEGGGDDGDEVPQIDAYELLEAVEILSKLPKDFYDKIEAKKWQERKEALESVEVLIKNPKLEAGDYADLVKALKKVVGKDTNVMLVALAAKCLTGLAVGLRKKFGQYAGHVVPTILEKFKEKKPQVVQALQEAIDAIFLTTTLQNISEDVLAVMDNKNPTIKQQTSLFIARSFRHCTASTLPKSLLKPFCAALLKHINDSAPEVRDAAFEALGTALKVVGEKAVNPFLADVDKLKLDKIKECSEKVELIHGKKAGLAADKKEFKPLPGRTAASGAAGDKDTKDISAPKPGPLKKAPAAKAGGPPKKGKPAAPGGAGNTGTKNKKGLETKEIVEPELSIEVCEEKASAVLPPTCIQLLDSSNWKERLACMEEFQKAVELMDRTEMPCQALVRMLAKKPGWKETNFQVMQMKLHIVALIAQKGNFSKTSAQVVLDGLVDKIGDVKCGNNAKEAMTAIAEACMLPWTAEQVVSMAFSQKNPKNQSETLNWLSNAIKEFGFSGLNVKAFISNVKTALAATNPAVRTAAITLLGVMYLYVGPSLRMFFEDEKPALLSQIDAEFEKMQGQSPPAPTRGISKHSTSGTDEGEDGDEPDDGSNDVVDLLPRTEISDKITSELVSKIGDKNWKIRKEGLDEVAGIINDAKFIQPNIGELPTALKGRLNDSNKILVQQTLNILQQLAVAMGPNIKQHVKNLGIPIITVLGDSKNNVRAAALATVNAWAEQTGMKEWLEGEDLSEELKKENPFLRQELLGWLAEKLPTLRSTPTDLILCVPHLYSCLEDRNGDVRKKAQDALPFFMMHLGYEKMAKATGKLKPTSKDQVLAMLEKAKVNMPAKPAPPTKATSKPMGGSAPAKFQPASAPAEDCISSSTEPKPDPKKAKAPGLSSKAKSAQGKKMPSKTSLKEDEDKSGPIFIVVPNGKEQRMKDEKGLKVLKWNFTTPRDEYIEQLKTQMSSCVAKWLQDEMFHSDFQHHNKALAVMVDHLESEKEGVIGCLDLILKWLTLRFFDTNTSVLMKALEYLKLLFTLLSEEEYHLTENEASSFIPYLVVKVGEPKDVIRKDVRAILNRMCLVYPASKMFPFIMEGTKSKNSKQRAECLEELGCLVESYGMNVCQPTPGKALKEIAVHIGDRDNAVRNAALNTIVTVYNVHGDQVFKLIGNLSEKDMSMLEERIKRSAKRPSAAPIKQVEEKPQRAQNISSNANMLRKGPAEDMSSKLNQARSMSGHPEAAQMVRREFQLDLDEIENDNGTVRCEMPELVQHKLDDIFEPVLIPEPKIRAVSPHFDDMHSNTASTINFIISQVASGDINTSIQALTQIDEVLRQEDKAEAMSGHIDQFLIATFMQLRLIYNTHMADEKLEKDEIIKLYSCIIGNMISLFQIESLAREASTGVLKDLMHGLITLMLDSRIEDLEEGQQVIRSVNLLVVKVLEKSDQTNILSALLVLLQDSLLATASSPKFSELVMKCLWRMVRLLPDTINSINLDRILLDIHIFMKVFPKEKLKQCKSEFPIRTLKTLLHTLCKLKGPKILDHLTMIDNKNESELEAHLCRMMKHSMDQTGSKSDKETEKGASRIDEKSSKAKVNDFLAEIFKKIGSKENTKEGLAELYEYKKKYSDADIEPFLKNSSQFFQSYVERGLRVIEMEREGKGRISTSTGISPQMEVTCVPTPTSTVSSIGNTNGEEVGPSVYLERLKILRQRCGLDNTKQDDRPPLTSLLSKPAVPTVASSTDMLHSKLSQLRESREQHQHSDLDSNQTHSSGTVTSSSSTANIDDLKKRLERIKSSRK
UniProt Q9Y265: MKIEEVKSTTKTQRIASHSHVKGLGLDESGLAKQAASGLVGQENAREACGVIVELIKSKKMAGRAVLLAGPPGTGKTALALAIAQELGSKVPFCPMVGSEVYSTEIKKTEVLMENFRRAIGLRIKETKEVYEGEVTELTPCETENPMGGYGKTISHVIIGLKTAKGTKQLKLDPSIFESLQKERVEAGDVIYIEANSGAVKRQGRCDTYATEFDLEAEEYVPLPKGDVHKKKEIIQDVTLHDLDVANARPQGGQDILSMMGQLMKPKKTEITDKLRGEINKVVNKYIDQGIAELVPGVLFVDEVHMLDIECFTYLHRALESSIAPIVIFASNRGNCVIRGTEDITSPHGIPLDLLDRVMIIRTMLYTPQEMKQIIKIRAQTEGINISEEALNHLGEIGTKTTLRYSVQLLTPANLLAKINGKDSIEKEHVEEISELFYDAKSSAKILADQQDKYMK
UniProt P12270: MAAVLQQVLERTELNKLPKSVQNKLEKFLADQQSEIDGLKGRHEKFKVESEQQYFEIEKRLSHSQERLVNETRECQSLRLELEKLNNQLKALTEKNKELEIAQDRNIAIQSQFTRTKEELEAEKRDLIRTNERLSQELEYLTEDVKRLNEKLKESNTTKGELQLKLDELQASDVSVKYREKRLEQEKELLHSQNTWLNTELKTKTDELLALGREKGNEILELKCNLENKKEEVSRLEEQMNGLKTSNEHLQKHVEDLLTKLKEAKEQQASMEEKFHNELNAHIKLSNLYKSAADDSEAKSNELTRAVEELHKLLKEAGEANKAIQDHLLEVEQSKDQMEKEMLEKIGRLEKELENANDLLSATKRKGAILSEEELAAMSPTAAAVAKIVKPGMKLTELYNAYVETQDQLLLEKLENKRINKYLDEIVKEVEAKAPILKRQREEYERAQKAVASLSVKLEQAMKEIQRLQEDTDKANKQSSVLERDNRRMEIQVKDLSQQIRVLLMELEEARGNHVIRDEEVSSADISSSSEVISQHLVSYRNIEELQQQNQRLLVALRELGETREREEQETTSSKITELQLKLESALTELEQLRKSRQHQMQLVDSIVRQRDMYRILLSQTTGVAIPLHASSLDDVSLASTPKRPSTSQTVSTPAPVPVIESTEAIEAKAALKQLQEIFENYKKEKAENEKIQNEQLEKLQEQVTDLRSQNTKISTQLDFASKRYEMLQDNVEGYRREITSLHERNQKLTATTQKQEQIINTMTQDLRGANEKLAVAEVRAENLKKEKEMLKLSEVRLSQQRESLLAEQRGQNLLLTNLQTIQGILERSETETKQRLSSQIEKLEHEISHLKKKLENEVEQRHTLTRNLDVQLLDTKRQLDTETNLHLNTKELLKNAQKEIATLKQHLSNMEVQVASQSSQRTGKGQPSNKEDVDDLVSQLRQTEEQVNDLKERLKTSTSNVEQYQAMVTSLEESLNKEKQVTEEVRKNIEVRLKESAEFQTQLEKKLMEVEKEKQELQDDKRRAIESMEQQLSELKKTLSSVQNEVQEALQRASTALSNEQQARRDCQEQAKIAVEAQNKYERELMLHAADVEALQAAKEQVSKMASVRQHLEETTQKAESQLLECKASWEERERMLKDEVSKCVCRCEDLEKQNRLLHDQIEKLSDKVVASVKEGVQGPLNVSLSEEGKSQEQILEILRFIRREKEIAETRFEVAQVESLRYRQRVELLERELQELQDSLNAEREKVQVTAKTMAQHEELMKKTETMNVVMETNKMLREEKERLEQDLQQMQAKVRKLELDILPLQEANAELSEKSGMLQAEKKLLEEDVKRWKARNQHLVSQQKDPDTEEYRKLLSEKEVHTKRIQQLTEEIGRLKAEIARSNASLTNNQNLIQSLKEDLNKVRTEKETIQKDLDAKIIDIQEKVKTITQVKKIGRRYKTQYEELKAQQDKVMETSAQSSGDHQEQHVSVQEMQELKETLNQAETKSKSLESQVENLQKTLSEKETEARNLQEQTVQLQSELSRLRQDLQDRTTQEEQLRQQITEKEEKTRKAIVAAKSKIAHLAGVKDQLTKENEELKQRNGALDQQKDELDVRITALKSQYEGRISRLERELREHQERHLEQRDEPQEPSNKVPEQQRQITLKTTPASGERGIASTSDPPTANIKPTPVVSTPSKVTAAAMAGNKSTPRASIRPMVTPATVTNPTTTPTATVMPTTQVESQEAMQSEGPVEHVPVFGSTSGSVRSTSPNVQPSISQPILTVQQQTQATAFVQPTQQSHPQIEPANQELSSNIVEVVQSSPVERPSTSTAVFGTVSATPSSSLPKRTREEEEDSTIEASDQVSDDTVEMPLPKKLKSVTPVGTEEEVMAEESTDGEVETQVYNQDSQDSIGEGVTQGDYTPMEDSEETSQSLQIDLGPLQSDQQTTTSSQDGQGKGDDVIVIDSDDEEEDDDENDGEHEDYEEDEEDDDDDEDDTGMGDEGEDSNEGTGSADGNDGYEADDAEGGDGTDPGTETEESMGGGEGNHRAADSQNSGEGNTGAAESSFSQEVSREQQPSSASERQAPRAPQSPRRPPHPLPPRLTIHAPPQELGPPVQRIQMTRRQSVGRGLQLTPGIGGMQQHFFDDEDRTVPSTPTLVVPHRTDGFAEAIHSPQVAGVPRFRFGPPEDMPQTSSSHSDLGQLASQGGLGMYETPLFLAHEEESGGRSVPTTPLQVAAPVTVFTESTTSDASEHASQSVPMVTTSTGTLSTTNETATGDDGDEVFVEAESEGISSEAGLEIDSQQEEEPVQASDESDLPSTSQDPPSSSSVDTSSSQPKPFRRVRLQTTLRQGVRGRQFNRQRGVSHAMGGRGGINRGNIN
UniProt Q9BUF5: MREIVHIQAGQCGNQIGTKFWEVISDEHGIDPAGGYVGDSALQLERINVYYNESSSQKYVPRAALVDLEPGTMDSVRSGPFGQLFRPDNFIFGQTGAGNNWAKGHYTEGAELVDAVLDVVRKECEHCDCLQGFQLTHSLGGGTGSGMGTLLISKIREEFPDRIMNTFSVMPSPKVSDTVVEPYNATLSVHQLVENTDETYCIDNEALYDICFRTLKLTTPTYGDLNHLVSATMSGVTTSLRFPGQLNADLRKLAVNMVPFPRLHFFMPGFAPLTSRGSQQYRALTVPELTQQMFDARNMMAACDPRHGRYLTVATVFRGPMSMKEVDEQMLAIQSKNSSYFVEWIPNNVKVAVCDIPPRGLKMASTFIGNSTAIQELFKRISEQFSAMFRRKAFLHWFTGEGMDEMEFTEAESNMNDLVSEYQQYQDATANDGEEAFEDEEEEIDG
UniProt P35222: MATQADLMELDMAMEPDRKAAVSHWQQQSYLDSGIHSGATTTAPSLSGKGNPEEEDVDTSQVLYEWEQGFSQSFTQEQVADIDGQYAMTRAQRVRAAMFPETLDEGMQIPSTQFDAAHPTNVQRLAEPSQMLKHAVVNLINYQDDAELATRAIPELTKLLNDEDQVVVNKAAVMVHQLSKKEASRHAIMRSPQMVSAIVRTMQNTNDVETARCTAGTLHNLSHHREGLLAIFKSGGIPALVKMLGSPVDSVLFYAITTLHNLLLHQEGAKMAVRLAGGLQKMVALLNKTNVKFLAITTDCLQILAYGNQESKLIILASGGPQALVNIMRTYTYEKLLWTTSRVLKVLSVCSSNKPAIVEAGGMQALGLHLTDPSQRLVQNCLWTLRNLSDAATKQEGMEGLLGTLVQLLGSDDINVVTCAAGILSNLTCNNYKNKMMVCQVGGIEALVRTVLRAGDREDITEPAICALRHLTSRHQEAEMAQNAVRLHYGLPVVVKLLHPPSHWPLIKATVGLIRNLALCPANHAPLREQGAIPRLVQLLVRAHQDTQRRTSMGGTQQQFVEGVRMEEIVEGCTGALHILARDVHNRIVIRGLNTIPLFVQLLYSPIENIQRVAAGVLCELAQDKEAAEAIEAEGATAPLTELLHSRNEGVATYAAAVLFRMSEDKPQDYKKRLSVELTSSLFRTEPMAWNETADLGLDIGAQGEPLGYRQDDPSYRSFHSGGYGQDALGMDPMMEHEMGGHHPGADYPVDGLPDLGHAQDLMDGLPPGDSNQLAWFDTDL

T1: BioLSF (biotinylated domain fused to LSF) (UniProt Q12800)
T1 sequence (chain, biotin on the Bio domain (biotinylated by endogenous enzymes)): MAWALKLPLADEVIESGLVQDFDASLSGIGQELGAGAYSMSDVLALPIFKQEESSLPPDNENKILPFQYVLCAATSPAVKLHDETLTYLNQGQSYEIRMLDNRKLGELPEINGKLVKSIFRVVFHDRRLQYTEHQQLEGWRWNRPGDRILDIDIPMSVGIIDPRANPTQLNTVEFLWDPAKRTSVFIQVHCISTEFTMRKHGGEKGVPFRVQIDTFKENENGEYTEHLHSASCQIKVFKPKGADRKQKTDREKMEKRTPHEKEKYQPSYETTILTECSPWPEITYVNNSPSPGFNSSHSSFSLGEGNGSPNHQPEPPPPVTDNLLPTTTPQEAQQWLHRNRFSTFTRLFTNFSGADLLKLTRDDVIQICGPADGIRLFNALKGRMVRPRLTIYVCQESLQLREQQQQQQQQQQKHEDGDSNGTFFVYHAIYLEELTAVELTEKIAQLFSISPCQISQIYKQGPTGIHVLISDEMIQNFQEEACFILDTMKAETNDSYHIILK

B1: Kinesin family member 23 (protein, UniProt Q02241 1-960)
chain: MKSARAKTPRKPTVKKGSQTNLKDPVGVYCRVRPLGFPDQECCIEVINNTTVQLHTPEGYRLNRNGDYKETQYSFKQVFGTHTTQKELFDVVANPLVNDLIHGKNGLLFTYGVTGSGKTHTMTGSPGEGGLLPRCLDMIFNSIGSFQAKRYVFKSNDRNSMDIQCEVDALLERQKREAMPNPKTSSSKRQVDPEFADMITVQEFCKAEEVDEDSVYGVFVSYIEIYNNYIYDLLEEVPFDPIKPKPPQSKLLREDKNHNMYVAGCTEVEVKSTEEAFEVFWRGQKKRRIANTHLNRESSRSHSVFNIKLVQAPLDADGDNVLQEKEQITISQLSLVDLAGSERTNRTRAEGNRLREAGNINQSLMTLRTCMDVLRENQMYGTNKMVPYRDSKLTHLFKNYFDGEGKVRMIVCVNPKAEDYEENLQVMRFAEVTQEVEVARPVDKAICGLTPGRRYRNQPRGPVGNEPLVTDVVLQSFPPLPSCEILDINDEQTLPRLIEALEKRHNLRQMMIDEFNKQSNAFKALLQEFDNAVLSKENHMQGKLNEKEKMISGQKLEIERLEKKNKTLEYKIEILEKTTTIYEEDKRNLQQELETQNQKLQRQFSDKRRLEARLQGMVTETTMKWEKECERRVAAKQLEMQNKLWVKDEKLKQLKAIVTEPKTEKPERPSRERDREKVTQRSVSPSPVPLSSNYIAQISNGQQLMSQPQLHRRSNSCSSISVASCISEWEQKIPTYNTPLKVTSIARRRQQEPGQSKTCIVSDRRRGMYWTEGREVVPTFRNEIEIEEDHCGRLLFQPDQNAPPIRLRHRRSRSAGDRWVDHKPASNMQTETVMQPHVPHAITVSVANEKALAKCEKYMLTHQELASDGEIETKLIKGDIYKTRGGGQSVQFTDIETLKQESPNGSRKRRSSTVAPAQPDGAESEWTDVETRCSVAVEMRAGSQLGPGYQHHAQPKRKKP
B2: Kinesin family member 2C (protein, UniProt Q99661 1-725)
chain: MAMDSSLQARLFPGLAIKIQRSNGLIHSANVRTVNLEKSCVSVEWAEGGATKGKEIDFDDVAAINPELLQLLPLHPKDNLPLQENVTIQKQKRRSVNSKIPAPKESLRSRSTRMSTVSELRITAQENDMEVELPAAANSRKQFSVPPAPTRPSCPAVAEIPLRMVSEEMEEQVHSIRGSSSANPVNSVRRKSCLVKEVEKMKNKREEKKAQNSEMRMKRAQEYDSSFPNWEFARMIKEFRATLECHPLTMTDPIEEHRICVCVRKRPLNKQELAKKEIDVISIPSKCLLLVHEPKLKVDLTKYLENQAFCFDFAFDETASNEVVYRFTARPLVQTIFEGGKATCFAYGQTGSGKTHTMGGDLSGKAQNASKGIYAMASRDVFLLKNQPCYRKLGLEVYVTFFEIYNGKLFDLLNKKAKLRVLEDGKQQVQVVGLQEHLVNSADDVIKMIDMGSACRTSGQTFANSNSSRSHACFQIILRAKGRMHGKFSLVDLAGNERGADTSSADRQTRMEGAEINKSLLALKECIRALGQNKAHTPFRESKLTQVLRDSFIGENSRTCMIATISPGISSCEYTLNTLRYADRVKELSPHSGPSGEQLIQMETEEMEACSNGALIPGNLSKEEEELSSQMSSFNEAMTQIRELEEKAMEELKEIIQQGPDWLELSEMTEQPDYDLETFVNKAESALAQQAKHFSALRDVIKALRLAMQLEEQASRQISSKKRPQ

Target: T1, BioLSF (biotinylated domain fused to LSF)
Test: affinity purification with mass spectrometry; mitotic DLD-1 derived cells induced with doxycycline to express BioLSF, 1 h with vehicle or 4 uM FQI1, cross-linked with 1% formaldehyde for 5 min; lysate bound to streptavidin beads, washed with 2% SDS, high salt buffer, LiCl buffer and PBS; controls: parental DLD-1 and uninduced cells; may also find proteins in complexes with direct BioLSF partners

“Cytoskeleton-associated protein 5 (from UniProt Q14008 1-2032)” was tested. Which binding did it give?
The binding was “binds”.

“RuvB-like AAA ATPase 1 (from UniProt Q9Y265 1-456) (enzyme)” was tested. Which binding did it give?
The binding was “binds”.

For “Nucleoprotein TPR (from UniProt P12270 1-2363)”, which binding is on record?
The binding was “binds”.

How did the binding turn out when “Tubulin beta-6 (from UniProt Q9BUF5 1-446)” was run?
The binding was “binds”.

“Cytoplasmic dynein 1 heavy chain 1 (from UniProt Q14204 1-4646)” was tested. Which binding did it give?
The binding was “binds”.

For “Beta-catenin (from UniProt P35222 1-781)”, which binding is on record?
Its binding is “binds”.

For B1, which binding is on record?
Its binding is “binds”.

Which binding does the source give for B2 here?
Its binding is “binds”.
